Assay results published in PMC10290656.
These are yes or no findings as the source states them, for the method shown. Binding seen in cells or lysates may run through a third protein. Some binding calls cover weakened binding; strength is not graded here.

Target: T1, Tribbles homolog 1 (Trib1), endogenous in primary murine hepatocytes (mouse (endogenous in primary murine hepatocytes)) (UniProt Q8K4K4)
T1 sequence: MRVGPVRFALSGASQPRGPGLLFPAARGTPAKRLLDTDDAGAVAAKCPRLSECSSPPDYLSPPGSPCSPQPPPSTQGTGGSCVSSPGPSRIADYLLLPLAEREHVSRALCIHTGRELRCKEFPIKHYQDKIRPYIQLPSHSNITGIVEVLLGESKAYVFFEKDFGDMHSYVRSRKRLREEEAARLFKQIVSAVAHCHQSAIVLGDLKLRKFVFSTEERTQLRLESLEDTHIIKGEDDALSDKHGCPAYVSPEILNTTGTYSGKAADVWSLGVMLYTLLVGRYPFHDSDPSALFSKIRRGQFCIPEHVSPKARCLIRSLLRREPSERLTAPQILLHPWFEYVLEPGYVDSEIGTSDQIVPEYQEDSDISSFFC
Experiment: co-IP; immunoprecipitation with anti-Trib1, anti-Nrf2 or IgG from lysates of primary murine hepatocytes; endogenous proteins

B1: Nuclear factor erythroid 2-related factor 2 (Nrf2), endogenous in primary murine hepatocytes (protein, UniProt Q60795 1-597)
chain: MMDLELPPPGLQSQQDMDLIDILWRQDIDLGVSREVFDFSQRQKDYELEKQKKLEKERQEQLQKEQEKAFFAQFQLDEETGEFLPIQPAQHIQTDTSGSASYSQVAHIPKQDALYFEDCMQLLAETFPFVDDHESLALDIPSHAESSVFTAPHQAQSLNSSLEAAMTDLSSIEQDMEQVWQELFSIPELQCLNTENKQLADTTAVPSPEATLTEMDSNYHFYSSISSLEKEVGNCGPHFLHGFEDSFSSILSTDDASQLTSLDSNPTLNTDFGDEFYSAFIAEPSDGGSMPSSAAISQSLSELLDGTIEGCDLSLCKAFNPKHAEGTMEFNDSDSGISLNTSPSRASPEHSVESSIYGDPPPGFSDSEMEELDSAPGSVKQNGPKAQPAHSPGDTVQPLSPAQGHSAPMRESQCENTTKKEVPVSPGHQKAPFTKDKHSSRLEAHLTRDELRAKALHIPFPVEKIINLPVDDFNEMMSKEQFNEAQLALIRDIRRRGKNKVAAQNCRKRKLENIVELEQDLGHLKDEREKLLREKGENDRNLHLLKRRLSTLYLEVFSMLRDEDGKPYSPSEYSLQQTRDGNVFLVPKSKKPDTKKN
With B1 the binding was “binds”.
